Data published in patent US20080176781A1, “Perfumes for linear citrus release in rinse-off systems” (priority 2007, published 2008).

Test: Percent odor contribution within a water release group
[1] = within its water release group, Delayed Citrus-Fruity Linear Release Perfume
[2] = within its water release group, Citrus-Cucumber Sustained Release Type Fragrance
[3] = within its water release group, Delayed Citrus-Floral Linear Release
[4] = within its water release group, Deposition/Linear Release Citrus Perfume
[5] = within its water release group, Flash Release Type Citrus
[6] = within its water release group, Flash Release Type Citrus - Cucumber
[7] = within its water release group, Sustained Citrus-Floral Linear Release
[8] = within its water release group, Citrus Sustained Release Type Fragrance
[9] = within its water release group, Flash Release Citrus Fruity perfume
[10] = within its release group, Sustained Release Citrus-Fruity perfume
[11] = within its water release group, Delayed Linear Release Cucumber-Citrus Perfume
[12] = within its water release group, Flash Release Citrus-Floral

## CC1=CCC(C(C)CC2CCCC2=O)CC1 (stereo not shown)
[1]
  % Odor: 67.96%

## C=CC(C)(O)CCC=C(C)CC (mixture of isomers) [ETHYL LINALOOL]
[2]
  % Odor Contribution: 67.16%
[3]
  % Odor Contribution: 0.95%
[4]
  % Odor Contribution: 2.89%
[5]
  % Odor Contribution: 41.86%
[6]
  % Odor Contribution: 46.15%
[7]
  % Odor Contribution: 0.97%

## CC1=CCC(C=CC(C)C(C)O)C1(C)C (stereo in doubt) [EBANOL]
[8]
  % Odor Contribution: 0.01%
[5]
  % Odor Contribution: 0.04%

## CCCCCCCCCC=O [ALDEHYDE C10 (DECANAL), DECANAL]
[3]
  % Odor Contribution: 1.70%

## CCCCCCCC=O [ALDEHYDE C 8 (OCTANAL), OCTANAL]
[2]
  % Odor Contribution: 0.88%
[3]
  % Odor Contribution: 3.65%
[9]
  % Odor: 0.08%
[7]
  % Odor Contribution: 1.26%

## C=CCOC(=O)CCCCC [ALLYL CAPROATE]
[10]
  % Odor: 7.62%

## CC(OC=O)C1CCCC(C)(C)C1 (stereo not shown) [APHERMATE]
[1]
  % Odor: 0.56%

## CCOC(=O)CC1(C)OCCO1 [APPLINAL]
[4]
  % Odor Contribution: 0.63%

## CC(=O)OCc1ccccc1 [BENZYL ACETATE]
[3]
  % Odor Contribution: 3.70%
[7]
  % Odor Contribution: 2.56%

## CCCCCC1CC(=O)C=C(C)C1C(=O)OCC (stereo not shown) [CALYXOL]
[3]
  % Odor Contribution: 4.10%
[7]
  % Odor Contribution: 0.30%

## CC/C=C\CCOC(C)=O [CIS-3-HEXENYL ACETATE]
[2]
  % Odor Contribution: 0.26%
[3]
  % Odor Contribution: 1.10%
[6]
  % Odor Contribution: 0.35%
[7]
  % Odor Contribution: 0.38%

## CC/C=C\CCOC(=O)c1ccccc1O [CIS-3-HEXENYL SALICYLATE]
[8]
  % Odor Contribution: 9.82%
[6]
  % Odor Contribution: 2.62%

## CC(C)=CCCC(C)CC=O (stereo not shown) [CITRONELLAL]
[3]
  % Odor Contribution: 16.97%
[4]
  % Odor Contribution: 30.94%
[9]
  % Odor: 17.18%

## CC(C)=CCCC(C)CCO (stereo not shown) [CITRONELLOL]
[4]
  % Odor Contribution: 52.81%

## CC(C)=CCCC(C)CC#N (stereo not shown) [CITRONELLYL NITRILE]
[3]
  % Odor Contribution: 2.63%
[11]
  % Odor Contribution: 6.61%
[4]
  % Odor Contribution: 1.62%
[12]
  % Odor Contribution: 6.73%

## C=CC(C)CCCC(C)(C)O (stereo not shown) [DIHYDROMYRCENOL]
[2]
  % Odor Contribution: 1.67%
[7]
  % Odor Contribution: 0.80%

## CC(=O)OC(C)(C)Cc1ccccc1 [DIMETHYL BENZYL CARBINYL ACETATE]
[10]
  % Odor: 68.23%
[9]
  % Odor: 69.13%

## CCOC(=O)C(C)CC (stereo not shown) [ETHYL 2-METHYL BUTYRATE, Ethyl 2-methylbutyrate]
[4]
  % Odor Contribution: 60.58%
[5]
  % Odor Contribution: 0.60%

## CCC(C)C(=O)N(C)c1ccccc1 (stereo not shown) [GARDAMIDE]
[1]
  % Odor: 99.79%

## CC(=O)OC/C=C(\C)CCC=C(C)C [GERANYL ACETATE]
[7]
  % Odor Contribution: 1.68%

## CC(CC=O)CCCC(C)(C)O (stereo not shown) [HYDROXYCITRONELLAL]
[3]
  % Odor Contribution: 0.62%
[7]
  % Odor Contribution: 0.61%

## CC1=CC(C)C(C=O)CC1 (stereo not shown) [LIGUSTRAL]
[6]
  % Odor Contribution: 0.54%

## C=CC(C)(O)CCC=C(C)C (stereo not shown) [LINALOOL, linalool]
[11]
  % Odor Contribution: 12.04%

## CC(CC=O)CCc1ccccc1 (stereo not shown) [MEFRANAL]
[5]
  % Odor Contribution: 100.00%

## CCCCCC1C(=O)CCC1CC(=O)OC (stereo not shown) [METHYL DIHYDRO JASMONATE]
[5]
  % Odor Contribution: 95.62%

## CCCCCCC#CC(=O)OC [METHYL OCTINE CARBONATE]
[11]
  % Odor Contribution: 21.76%

## CCC(CC)C(=O)N(C)c1cccc(C)c1 [PARADISAMIDE]
[2]
  % Odor Contribution: 96.99%
[3]
  % Odor Contribution: 86.08%
[11]
  % Odor Contribution: 33.88%

## CC(C)C(=O)OCCOc1ccccc1 [PHENOXY ETHYL ISOBUTYRATE]
[9]
  % Odor: 89.96%

## CC(=O)OCCc1ccccc1 [PHENYL ETHYL ACETATE]
[3]
  % Odor Contribution: 0.23%
[7]
  % Odor Contribution: 0.23%

## CC1CC(C)(c2ccccc2)CO1 (stereo not shown) [RHUBAFURAN]
[10]
  % Odor: 0.80%
[3]
  % Odor Contribution: 0.16%
[6]
  % Odor Contribution: 6.62%
[7]
  % Odor Contribution: 0.16%

## CC(C)CC1CCCC(C)(O)C1 (stereo not shown) [ROSSITOL]
[2]
  % Odor Contribution: 10.38%
[3]
  % Odor Contribution: 0.16%
[11]
  % Odor Contribution: 10.19%
[4]
  % Odor Contribution: 1.32%
[6]
  % Odor Contribution: 6.82%
[7]
  % Odor Contribution: 0.16%

## CCC(C)(O)CCCC(C)C (stereo not shown) [TETRAHYDROLINALOOL]
[8]
  % Odor Contribution: 2.90%

## CC/C=C\CC/C=C/C=O [TRANS 2 CIS 6 NONADIENAL]
[11]
  % Odor Contribution: 4.06%
[6]
  % Odor Contribution: 6.10%

## CCCCCCCCCCC=CC#N [TRIDECEN 2 NITRILE]
[11]
  % Odor Contribution: 0.19%
[6]
  % Odor Contribution: 0.62%
[7]
  % Odor Contribution: 0.13%

## C=C(C)[C@H]1CC=C(C)CC1 [d-LIMONENE, d-1-Methyl-4-isopropenyl-1-cyclohexene]
[8]
  % Odor Contribution: 65.04%
[3]
  % Odor Contribution: 100.00%
[12]
  % Odor Contribution: 100.00%
[7]
  % Odor Contribution: 100.00%
